No constants are given. Whether binding was seen depends on the method and setting. For part of these data: In cells and extracts the contact can be indirect. Some results given as binding are weak or reduced against the parent protein; the word gives no strength. For part of these data: Where a sequence is shown, tags or fusion partners need not be part of it.

Amino acid sequences for entries named in this document (tags omitted).
UniProt Q9FTA2: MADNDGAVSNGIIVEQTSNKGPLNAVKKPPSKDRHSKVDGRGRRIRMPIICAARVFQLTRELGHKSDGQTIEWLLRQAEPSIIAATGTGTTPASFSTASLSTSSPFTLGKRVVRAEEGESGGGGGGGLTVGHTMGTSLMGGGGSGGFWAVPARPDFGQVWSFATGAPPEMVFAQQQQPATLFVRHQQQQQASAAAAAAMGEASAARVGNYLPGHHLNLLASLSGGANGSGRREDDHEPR

Experiment [1] has as its target T1, A. thaliana TIMING OF CAB EXPRESSION1 (AtTOC1), yeast two-hybrid bait (A. thaliana) (UniProt Q9LKL2).
T1 sequence: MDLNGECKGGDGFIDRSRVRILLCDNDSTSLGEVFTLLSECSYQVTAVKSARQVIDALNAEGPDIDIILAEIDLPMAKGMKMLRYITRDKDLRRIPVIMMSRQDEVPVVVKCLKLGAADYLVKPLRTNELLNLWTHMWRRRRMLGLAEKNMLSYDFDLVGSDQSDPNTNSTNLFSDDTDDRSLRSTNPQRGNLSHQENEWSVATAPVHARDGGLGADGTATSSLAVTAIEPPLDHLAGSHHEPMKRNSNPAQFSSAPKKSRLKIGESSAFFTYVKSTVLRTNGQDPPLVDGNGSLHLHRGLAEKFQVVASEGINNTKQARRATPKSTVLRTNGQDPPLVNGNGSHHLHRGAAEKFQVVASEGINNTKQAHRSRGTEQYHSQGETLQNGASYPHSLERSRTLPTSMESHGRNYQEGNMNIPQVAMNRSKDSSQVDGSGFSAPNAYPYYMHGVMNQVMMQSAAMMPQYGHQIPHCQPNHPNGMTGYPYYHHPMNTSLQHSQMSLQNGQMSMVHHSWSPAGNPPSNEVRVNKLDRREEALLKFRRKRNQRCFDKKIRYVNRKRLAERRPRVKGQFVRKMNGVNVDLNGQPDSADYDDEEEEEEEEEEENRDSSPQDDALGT
In words: two-hybrid; yeast; AtTOC1 or AaTOC1 as bait (pGBKT7-BD), AtCHE or AaCHE as prey (pGADT7-AD); quadruple dropout medium with X-α-gal (QDO/X) and quantitative α-galactosidase (PNG) assay relative to p53-T.

The target in experiment [2] is A. thaliana CCA1 HIKING EXPEDITION (AtCHE), yeast two-hybrid bait (A. thaliana) (UniProt Q9FTA2). In words: two-hybrid; yeast; AtCHE or AaCHE as bait (pGBKT7-BD, Y2H gold), AtHD1 or AaHD1 as prey (pGADT7-AD, Y187), mated; limited growth in the triple dropout media.
In experiment [3] the target is NGFP:AtCHE (A. thaliana) (UniProt Q9FTA2). Description: split reporter; split GFP complementation in E. coli Rossetta2 (DE3): NGFP:CHE (T7 promoter, IPTG) co-expressed with HD1:CGFP (PBAD promoter, arabinose); GFP fluorescence microscopy and flow cytometry (FACSCalibur, ~10,000 events), 20 °C for 2 days. Background: Flow cytometry measures light scatter and fluorescence of single cells or particles in a stream.

Regarding “A. thaliana CCA1 HIKING EXPEDITION (AtCHE), yeast two-hybrid prey (from UniProt Q9FTA2 1-239)”, in experiment [1], the binding entry is “binds”.

B1: A. thaliana HISTONE …1 (AtHD1), yeast two-hybrid prey (protein, UniProt O22446 1-501)
chain: MDTGGNSLASGPDGVKRKVCYFYDPEVGNYYYGQGHPMKPHRIRMTHALLAHYGLLQHMQVLKPFPARDRDLCRFHADDYVSFLRSITPETQQDQIRQLKRFNVGEDCPVFDGLYSFCQTYAGGSVGGSVKLNHGLCDIAINWAGGLHHAKKCEASGFCYVNDIVLAILELLKQHERVLYVDIDIHHGDGVEEAFYATDRVMTVSFHKFGDYFPGTGHIQDIGYGSGKYYSLNVPLDDGIDDESYHLLFKPIMGKVMEIFRPGAVVLQCGADSLSGDRLGCFNLSIKGHAECVKFMRSFNVPLLLLGGGGYTIRNVARCWCYETGVALGVEVEDKMPEHEYYEYFGPDYTLHVAPSNMENKNSRQMLEEIRNDLLHNLSKLQHAPSVPFQERPPDTETPEVDEDQEDGDKRWDPDSDMDVDDDRKPIPSRVKREAVEPDTKDKDGLKGIMERGKGCEVEVDESGSTKVTGVNPVGVEEASVKMEEEGTNKGGAEQAFPPKT
For the molecule B1, in experiment [2], the binding result is reported as “binds weakly”.

B2: AtHD1:CGFP (protein, UniProt O22446 1-501)
chain: MDTGGNSLASGPDGVKRKVCYFYDPEVGNYYYGQGHPMKPHRIRMTHALLAHYGLLQHMQVLKPFPARDRDLCRFHADDYVSFLRSITPETQQDQIRQLKRFNVGEDCPVFDGLYSFCQTYAGGSVGGSVKLNHGLCDIAINWAGGLHHAKKCEASGFCYVNDIVLAILELLKQHERVLYVDIDIHHGDGVEEAFYATDRVMTVSFHKFGDYFPGTGHIQDIGYGSGKYYSLNVPLDDGIDDESYHLLFKPIMGKVMEIFRPGAVVLQCGADSLSGDRLGCFNLSIKGHAECVKFMRSFNVPLLLLGGGGYTIRNVARCWCYETGVALGVEVEDKMPEHEYYEYFGPDYTLHVAPSNMENKNSRQMLEEIRNDLLHNLSKLQHAPSVPFQERPPDTETPEVDEDQEDGDKRWDPDSDMDVDDDRKPIPSRVKREAVEPDTKDKDGLKGIMERGKGCEVEVDESGSTKVTGVNPVGVEEASVKMEEEGTNKGGAEQAFPPKT
As for B2, the binding result in experiment [3] is listed as “binds”.

(Values after paper PMC5366859.)
